Experimental findings from paper PMC5427825 are described below.

Chains of the proteins cited; added tags and fusions are not shown. Lines headed by an entry give the natural chain unless they say otherwise; changes in a name come on top.
UniProt Q969V5: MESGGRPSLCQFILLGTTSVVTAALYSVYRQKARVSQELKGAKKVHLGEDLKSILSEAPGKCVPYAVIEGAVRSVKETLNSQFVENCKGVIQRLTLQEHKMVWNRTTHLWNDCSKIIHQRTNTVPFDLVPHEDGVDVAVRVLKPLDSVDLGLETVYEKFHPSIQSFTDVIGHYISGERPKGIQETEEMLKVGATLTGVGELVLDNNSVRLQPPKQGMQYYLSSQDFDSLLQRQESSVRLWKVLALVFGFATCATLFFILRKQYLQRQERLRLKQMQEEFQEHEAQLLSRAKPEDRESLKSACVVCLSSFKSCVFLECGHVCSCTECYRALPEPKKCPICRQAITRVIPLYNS
UniProt P42224: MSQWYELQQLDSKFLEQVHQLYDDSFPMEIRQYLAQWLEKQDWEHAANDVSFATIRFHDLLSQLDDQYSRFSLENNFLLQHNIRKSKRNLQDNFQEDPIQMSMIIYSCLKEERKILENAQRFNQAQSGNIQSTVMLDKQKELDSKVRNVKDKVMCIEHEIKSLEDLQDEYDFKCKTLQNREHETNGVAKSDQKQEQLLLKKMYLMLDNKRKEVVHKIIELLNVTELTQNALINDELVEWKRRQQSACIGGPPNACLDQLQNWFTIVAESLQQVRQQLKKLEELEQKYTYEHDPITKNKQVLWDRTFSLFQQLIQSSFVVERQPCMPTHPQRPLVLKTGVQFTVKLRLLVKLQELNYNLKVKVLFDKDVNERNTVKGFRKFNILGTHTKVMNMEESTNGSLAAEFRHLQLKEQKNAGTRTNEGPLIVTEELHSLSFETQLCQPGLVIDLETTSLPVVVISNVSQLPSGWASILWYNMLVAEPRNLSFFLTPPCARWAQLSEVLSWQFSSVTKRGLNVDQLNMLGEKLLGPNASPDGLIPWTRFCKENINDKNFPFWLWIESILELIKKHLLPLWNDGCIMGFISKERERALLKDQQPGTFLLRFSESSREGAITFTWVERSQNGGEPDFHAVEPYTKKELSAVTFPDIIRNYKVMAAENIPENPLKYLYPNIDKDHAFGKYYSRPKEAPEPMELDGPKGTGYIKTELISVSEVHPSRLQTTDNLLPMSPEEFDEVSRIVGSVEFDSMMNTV
UniProt Q27J81: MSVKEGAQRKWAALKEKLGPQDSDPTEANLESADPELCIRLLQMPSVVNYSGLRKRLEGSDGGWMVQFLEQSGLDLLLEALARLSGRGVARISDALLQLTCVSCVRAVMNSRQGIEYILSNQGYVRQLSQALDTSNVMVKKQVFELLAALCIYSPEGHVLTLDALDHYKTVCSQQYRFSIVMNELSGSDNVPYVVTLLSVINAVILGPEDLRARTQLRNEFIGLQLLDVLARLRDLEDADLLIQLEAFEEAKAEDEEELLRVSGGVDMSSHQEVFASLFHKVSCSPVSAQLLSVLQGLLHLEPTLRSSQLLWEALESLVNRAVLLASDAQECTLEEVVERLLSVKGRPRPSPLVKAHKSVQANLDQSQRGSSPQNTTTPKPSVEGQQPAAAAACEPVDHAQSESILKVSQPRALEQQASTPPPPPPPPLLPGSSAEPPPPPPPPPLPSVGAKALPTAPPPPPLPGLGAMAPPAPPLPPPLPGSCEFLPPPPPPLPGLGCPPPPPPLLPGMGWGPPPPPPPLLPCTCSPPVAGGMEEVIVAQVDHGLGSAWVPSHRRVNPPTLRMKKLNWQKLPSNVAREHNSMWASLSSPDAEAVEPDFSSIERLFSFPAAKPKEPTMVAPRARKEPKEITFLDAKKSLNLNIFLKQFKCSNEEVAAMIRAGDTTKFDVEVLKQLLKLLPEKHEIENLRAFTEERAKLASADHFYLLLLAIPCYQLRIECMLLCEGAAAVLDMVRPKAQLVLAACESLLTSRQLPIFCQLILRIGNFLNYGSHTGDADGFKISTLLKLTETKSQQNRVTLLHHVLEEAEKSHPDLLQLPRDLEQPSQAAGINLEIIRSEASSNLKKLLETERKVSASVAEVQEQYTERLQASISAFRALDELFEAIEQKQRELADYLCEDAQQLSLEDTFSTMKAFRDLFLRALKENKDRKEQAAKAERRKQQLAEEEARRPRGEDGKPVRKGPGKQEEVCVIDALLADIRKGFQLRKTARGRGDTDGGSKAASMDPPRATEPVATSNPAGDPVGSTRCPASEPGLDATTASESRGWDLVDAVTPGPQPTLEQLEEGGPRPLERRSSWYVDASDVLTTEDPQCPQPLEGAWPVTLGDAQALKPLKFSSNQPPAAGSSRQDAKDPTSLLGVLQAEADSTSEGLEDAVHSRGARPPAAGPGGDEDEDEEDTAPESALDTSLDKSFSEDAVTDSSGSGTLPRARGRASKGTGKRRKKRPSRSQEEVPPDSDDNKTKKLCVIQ
UniProt O00429: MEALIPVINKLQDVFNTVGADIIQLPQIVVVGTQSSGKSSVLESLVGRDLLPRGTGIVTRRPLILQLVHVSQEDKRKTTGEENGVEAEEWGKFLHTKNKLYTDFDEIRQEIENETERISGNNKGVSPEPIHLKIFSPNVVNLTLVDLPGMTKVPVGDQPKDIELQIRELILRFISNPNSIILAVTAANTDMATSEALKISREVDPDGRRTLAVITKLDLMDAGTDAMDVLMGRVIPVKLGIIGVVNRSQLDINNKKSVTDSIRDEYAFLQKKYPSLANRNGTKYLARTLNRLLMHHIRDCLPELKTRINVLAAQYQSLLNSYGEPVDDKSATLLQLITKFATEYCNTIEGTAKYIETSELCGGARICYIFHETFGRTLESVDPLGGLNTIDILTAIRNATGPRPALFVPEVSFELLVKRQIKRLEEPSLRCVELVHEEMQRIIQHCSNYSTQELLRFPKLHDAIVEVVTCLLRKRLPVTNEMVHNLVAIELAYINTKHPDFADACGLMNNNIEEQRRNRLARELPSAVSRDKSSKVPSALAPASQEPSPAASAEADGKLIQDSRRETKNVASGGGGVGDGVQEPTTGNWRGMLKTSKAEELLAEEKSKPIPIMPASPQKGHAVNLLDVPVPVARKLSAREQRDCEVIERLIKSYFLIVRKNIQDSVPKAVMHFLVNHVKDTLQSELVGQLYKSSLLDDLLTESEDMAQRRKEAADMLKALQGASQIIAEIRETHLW
UniProt O95786: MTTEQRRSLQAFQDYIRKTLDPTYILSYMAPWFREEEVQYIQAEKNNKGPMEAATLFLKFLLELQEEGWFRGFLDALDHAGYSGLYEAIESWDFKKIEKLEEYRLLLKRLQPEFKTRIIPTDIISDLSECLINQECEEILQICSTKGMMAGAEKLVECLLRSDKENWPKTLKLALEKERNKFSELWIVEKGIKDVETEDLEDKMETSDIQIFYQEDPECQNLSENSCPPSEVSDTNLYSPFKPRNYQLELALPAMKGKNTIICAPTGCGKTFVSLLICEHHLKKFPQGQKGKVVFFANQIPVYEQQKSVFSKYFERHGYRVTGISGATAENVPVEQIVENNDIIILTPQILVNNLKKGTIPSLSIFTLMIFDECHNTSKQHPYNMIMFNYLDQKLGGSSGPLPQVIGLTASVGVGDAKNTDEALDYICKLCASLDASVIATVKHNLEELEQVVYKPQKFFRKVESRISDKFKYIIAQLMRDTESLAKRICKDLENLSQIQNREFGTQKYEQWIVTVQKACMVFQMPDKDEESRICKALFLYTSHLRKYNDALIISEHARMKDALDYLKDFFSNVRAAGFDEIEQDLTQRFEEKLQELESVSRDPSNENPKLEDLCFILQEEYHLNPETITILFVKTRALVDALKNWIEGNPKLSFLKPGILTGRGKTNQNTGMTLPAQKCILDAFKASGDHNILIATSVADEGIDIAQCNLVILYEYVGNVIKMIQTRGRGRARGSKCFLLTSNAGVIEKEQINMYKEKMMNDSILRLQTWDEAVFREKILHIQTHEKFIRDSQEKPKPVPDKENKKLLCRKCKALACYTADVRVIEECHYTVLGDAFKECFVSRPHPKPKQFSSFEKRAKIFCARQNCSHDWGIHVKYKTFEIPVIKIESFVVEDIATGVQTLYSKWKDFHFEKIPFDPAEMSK
UniProt Q7Z434: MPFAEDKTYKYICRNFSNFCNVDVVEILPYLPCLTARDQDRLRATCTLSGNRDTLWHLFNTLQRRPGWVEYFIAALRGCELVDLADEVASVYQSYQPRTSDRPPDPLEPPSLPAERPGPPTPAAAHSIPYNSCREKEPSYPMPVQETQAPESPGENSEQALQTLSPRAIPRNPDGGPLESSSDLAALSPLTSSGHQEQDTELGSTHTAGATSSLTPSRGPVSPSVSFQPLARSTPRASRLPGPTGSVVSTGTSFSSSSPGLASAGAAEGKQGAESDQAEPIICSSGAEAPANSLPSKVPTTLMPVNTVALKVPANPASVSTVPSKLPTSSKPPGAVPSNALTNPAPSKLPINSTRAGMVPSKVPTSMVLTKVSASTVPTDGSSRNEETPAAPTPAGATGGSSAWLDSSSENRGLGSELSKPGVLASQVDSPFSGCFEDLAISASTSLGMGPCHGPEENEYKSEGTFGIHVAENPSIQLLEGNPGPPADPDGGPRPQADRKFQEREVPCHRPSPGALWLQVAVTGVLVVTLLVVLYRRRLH

To fix the notation:
B1: HERC5 (enzyme, UniProt Q9UII4 1-1024)
chain: MERRSRRKSRRNGRSTAGKAAATQPAKSPGAQLWLFPSAAGLHRALLRRVEVTRQLCCSPGRLAVLERGGAGVQVHQLLAGSGGARTPKCIKLGKNMKIHSVDQGAEHMLILSSDGKPFEYDNYSMKHLRFESILQEKKIIQITCGDYHSLALSKGGELFAWGQNLHGQLGVGRKFPSTTTPQIVEHLAGVPLAQISAGEAHSMALSMSGNIYSWGKNECGQLGLGHTESKDDPSLIEGLDNQKVEFVACGGSHSALLTQDGLLFTFGAGKHGQLGHNSTQNELRPCLVAELVGYRVTQIACGRWHTLAYVSDLGKVFSFGSGKDGQLGNGGTRDQLMPLPVKVSSSEELKLESHTSEKELIMIAGGNQSILLWIKKENSYVNLKRTIPTLNEGTVKRWIADVETKRWQSTKREIQEIFSSPACLTGSFLRKRRTTEMMPVYLDLNKARNIFKELTQKDWITNMITTCLKDNLLKRLPFHSPPQEALEIFFLLPECPMMHISNNWESLVVPFAKVVCKMSDQSSLVLEEYWATLQESTFSKLVQMFKTAVICQLDYWDESAEENGNVQALLEMLKKLHRVNQVKCQLPESIFQVDELLHRLNFFVEVCRRYLWKMTVDASENVQCCVIFSHFPFIFNNLSKIKLLHTDTLLKIESKKHKAYLRSAAIEEERESEFALRPTFDLTVRRNHLIEDVLNQLSQFENEDLRKELWVSFSGEIGYDLGGVKKEFFYCLFAEMIQPEYGMFMYPEGASCMWFPVKPKFEKKRYFFFGVLCGLSLFNCNVANLPFPLALFKKLLDQMPSLEDLKELSPDLGKNLQTLLDDEGDNFEEVFYIHFNVHWDRNDTNLIPNGSSITVNQTNKRDYVSKYINYIFNDSVKAVYEEFRRGFYKMCDEDIIKLFHPEELKDVIVGNTDYDWKTFEKNARYEPGYNSSHPTIVMFWKAFHKLTLEEKKKFLVFLTGTDRLQMKDLNNMKITFCCPESWNERDPIRALTCFSVLFLPKYSTMETVEEALQEAINNNRGFG
B2: IFN-inducible oligoadenylate synthetases-like OASL (protein, UniProt Q15646 1-514)
chain: MALMQELYSTPASRLDSFVAQWLQPHREWKEEVLDAVRTVEEFLRQEHFQGKRGLDQDVRVLKVVKVGSFGNGTVLRSTREVELVAFLSCFHSFQEAAKHHKDVLRLIWKTMWQSQDLLDLGLEDLRMEQRVPDALVFTIQTRGTAEPITVTIVPAYRALGPSLPNSQPPPEVYVSLIKACGGPGNFCPSFSELQRNFVKHRPTKLKSLLRLVKHWYQQYVKARSPRANLPPLYALELLTIYAWEMGTEEDENFMLDEGFTTVMDLLLEYEVICIYWTKYYTLHNAIIEDCVRKQLKKERPIILDPADPTLNVAEGYRWDIVAQRASQCLKQDCCYDNRENPISSWNVKRARDIHLTVEQRGYPDFNLIVNPYEPIRKVKEKIRRTRGYSGLQRLSFQVPGSERQLLSSRCSLAKYGIFSHTHIYLLETIPSEIQVFVKNPDGGSYAYAINPNSFILGLKQQIEDQQGLPKKQQQLEFQGQVLQDWLGLGIYGIQDSDTLILSKKKGEALFPAS
B3: Mff (protein, UniProt Q9GZY8 1-342)
chain: MSKGTSSDTSLGRVSRAAFPSPTAAEMAEISRIQYEMEYTEGISQRMRVPEKLKVAPPNADLEQGFQEGVPNASVIMQVPERIVVAGNNEDVSFSRPADLDLIQSTPFKPLALKTPPRVLTLSERPLDFLDLERPPTTPQNEEIRAVGRLKRERSMSENAVRQNGQLVRNDSLWHRSDSAPRNKISRFQAPISAPEYTVTPSPQQARVCPPHMLPEDGANLSSARGILSLIQSSTRRAYQQILDVLDENRRPVLRGGSAAATSNPHHDNVRYGISNIDTTIEGTSDDLTVVDAASLRRQIIKLNRRLQLLEEENKERAKREMVMYSITVAFWLLNSWLWFRR
B4: IFIT1 (protein, UniProt P09914 1-478)
chain: MSTNGDDHQVKDSLEQLRCHFTWELSIDDDEMPDLENRVLDQIEFLDTKYSVGIHNLLAYVKHLKGQNEEALKSLKEAENLMQEEHDNQANVRSLVTWGNFAWMYYHMGRLAEAQTYLDKVENICKKLSNPFRYRMECPEIDCEEGWALLKCGGKNYERAKACFEKVLEVDPENPESSAGYAISAYRLDGFKLATKNHKPFSLLPLRQAVRLNPDNGYIKVLLALKLQDEGQEAEGEKYIEEALANMSSQTYVFRYAAKFYRRKGSVDKALELLKKALQETPTSVLLHHQIGLCYKAQMIQIKEATKGQPRGQNREKLDKMIRSAIFHFESAVEKKPTFEVAHLDLARMYIEAGNHRKAEENFQKLLCMKPVVEETMQDIHFHYGRFQEFQKKSDVNAIIHYLKAIKIEQASLTRDKSINSLKKLVLRKLRRKALDLESLSLLGFVYKLEGNMNEALEYYERALRLAADFENSVRQGP
B5: IFIT2 (protein, UniProt P09913 1-472)
chain: MSENNKNSLESSLRQLKCHFTWNLMEGENSLDDFEDKVFYRTEFQNREFKATMCNLLAYLKHLKGQNEAALECLRKAEELIQQEHADQAEIRSLVTWGNYAWVYYHMGRLSDVQIYVDKVKHVCEKFSSPYRIESPELDCEEGWTRLKCGGNQNERAKVCFEKALEKKPKNPEFTSGLAIASYRLDNWPPSQNAIDPLRQAIRLNPDNQYLKVLLALKLHKMREEGEEEGEGEKLVEEALEKAPGVTDVLRSAAKFYRRKDEPDKAIELLKKALEYIPNNAYLHCQIGCCYRAKVFQVMNLRENGMYGKRKLLELIGHAVAHLKKADEANDNLFRVCSILASLHALADQYEDAEYYFQKEFSKELTPVAKQLLHLRYGNFQLYQMKCEDKAIHHFIEGVKINQKSREKEKMKDKLQKIAKMRLSKNGADSEALHVLAFLQELNEKMQQADEDSERGLESGSLIPSASSWNGE

Results are given in words; binding and its absence hold for the method and conditions named. Binding seen in cells or lysates may run through a third protein. A yes stands for co-enrichment or nearness to the bait. Other partners may have been found.

This assay deals with mitochondrial anchored protein ligase MAPL fused to BirA* (R118G) and FLAG (MAPL-BirA-FLAG) (human) (UniProt Q969V5). Nature of the assay: proximity labelling.
Regarding STAT1 (from UniProt P42224 1-750), the binding result is recorded as “binds”.
In the case of INF2 (from UniProt Q27J81 1-1249), the binding entry was “binds”.
Regarding Drp1 (from UniProt O00429 1-736), the binding result is recorded as “binds”.
As to “retinoic acid-inducible gene I (RIG-I) (from UniProt O95786 1-925)”, the binding entry was “binds”.
As for “mitochondrial antiviral signaling protein MAVS (from UniProt Q7Z434 1-540)”, the binding entry is listed as “binds”.
On to B1, for which the binding entry is on record as “binds”.
For B2 the value was “binds”.
B3: the binding result is recorded as “binds”.
As for B4, the binding entry was “binds”.
For the molecule B5, the binding result is recorded as “binds”.
